According to patent US8481752B2, “Fluorescent imaging with substituted cyanine dyes” (Li-Cor, Inc., priority 2009, dated 2013):
Several values for one entry are separate records, joined by “and”; a condition that tells them apart may be missing. Identical values can stand only once. Where no unit stands, none is given here, and values compare only within one read-out.

Test system: actin
Experiment: Western blot of Jurkat lysate, anti-actin and Biotin-SP GAM, detected with 680 streptavidin bioconjugates
Conditions: for Bkgd % of Control / Sample % Intensity of Control: control IRDye 680 Streptavidin; for Sample Mean Intensity: mean of two blots; for Bkgd Intensity / Sample Fluorescence Intensity: single blots, conjugate 0.4 μg/ml

Substance | Bkgd % of Control [%] | Sample % Intensity of Control [%] | Sample Mean Intensity | Bkgd Intensity | Sample Fluorescence Intensity
SA-Compound 8 D/P 2.0: streptavidin conjugate of compound 8, D/P 2.0 | 130 | 306 | 56.8 | 411 Counts and 364 Counts | –
SA-Compound 8 D/P 1.1: streptavidin conjugate of compound 8, D/P 1.1 | 114 | 274 | 50.9 | 333 Counts and 348 Counts | 46.0 K Counts and 55.8 K Counts
SA-Compound 8 D/P 1.3: streptavidin conjugate of compound 8, D/P 1.3 | 117 | 224 | 41.5 | 348 Counts and 350 Counts | 51.3 K Counts and 31.7 K Counts
IRDye ® 680-Streptavidin: commercially available IRDye® 680 streptavidin conjugate | – | – | 18.6 | 302 Counts and 293 Counts | 15.7 K Counts and 21.4 K Counts
